Assay results reported in PMC7862700.
Only a part is listed here, and it is no random draw. At the low end of the ranking the order means little.

Sequences of proteins named here, by UniProt entry; tags and fusion partners are left off. A change or cut given only in a name is not applied to a line headed by its entry.
UniProt O43186: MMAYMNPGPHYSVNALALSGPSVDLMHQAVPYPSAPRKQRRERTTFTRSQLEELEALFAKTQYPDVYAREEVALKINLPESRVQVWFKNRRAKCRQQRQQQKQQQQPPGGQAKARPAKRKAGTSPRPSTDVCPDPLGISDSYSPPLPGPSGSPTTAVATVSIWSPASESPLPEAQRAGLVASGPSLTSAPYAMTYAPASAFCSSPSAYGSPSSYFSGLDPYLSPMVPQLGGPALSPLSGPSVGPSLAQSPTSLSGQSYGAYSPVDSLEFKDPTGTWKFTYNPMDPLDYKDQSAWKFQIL

Tests used:
Experiment in all cases: DAPPL (digital affinity profiling via proximity ligation, sequencing)
Settings in all cases: 10 mM Tris-HCl pH 7.5, 50 mM NaCl, 1 mM DTT, 4% glycerol, room temperature, 30 min; GST-TFs on glutathione beads, 16-mer random dsDNA library, 0.1% …; high values mean tight binding; double strand, one strand shown; scale: fold enrichment (6-mer frequency, TF over GST control)
[1] = biological target: T1, FEV (UniProt Q99581)
T1 sequence: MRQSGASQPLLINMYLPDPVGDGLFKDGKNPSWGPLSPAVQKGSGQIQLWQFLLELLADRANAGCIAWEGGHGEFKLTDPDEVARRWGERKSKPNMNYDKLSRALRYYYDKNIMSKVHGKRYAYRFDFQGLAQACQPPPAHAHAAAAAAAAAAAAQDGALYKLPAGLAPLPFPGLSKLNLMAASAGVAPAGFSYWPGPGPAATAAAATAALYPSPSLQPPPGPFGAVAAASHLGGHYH

[2] = biological target: CRX (UniProt O43186)
[3] = biological target: T2, ELF5 (UniProt Q9UKW6-2)
T2 sequence: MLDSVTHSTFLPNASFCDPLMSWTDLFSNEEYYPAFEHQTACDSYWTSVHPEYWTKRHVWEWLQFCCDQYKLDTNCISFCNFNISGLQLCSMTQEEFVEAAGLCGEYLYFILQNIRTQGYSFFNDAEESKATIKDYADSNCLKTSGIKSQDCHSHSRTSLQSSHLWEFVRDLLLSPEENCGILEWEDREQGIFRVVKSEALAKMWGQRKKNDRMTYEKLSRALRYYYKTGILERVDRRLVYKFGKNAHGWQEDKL

Sequence	binding signal [1]	binding signal [2]	binding signal [3]
GGCCCG	0.803	0.516	0.694
AGGTAG	0.66	0.544	0.676
TGAGTC	0.179	0.197	0.184
AGACAT	0.806	0.707	0.877
GAGCTG	0.72	0.717	0.671
CAAGGG	0.92	0.762	0.844
GGGATA	0.721	1.04	0.86
CGGTGA	0.509	0.33	0.406
GATCGT	0.425	0.424	0.391
GTCGCG	0.641	0.475	0.663
CCTGAG	0.816	0.785	0.826
AAGACC	0.853	0.927	0.905
GGGTCA	0.707	0.51	0.703
CGGCGT	0.854	0.642	0.776
CCAAGG	0.849	0.792	0.889
GAGGCT	0.574	0.671	0.565
AGCCAT	0.875	0.939	0.797
CGCAGC	0.828	0.617	0.739
CCACGG	0.805	0.7	0.925
AGTTGT	0.756	0.667	0.892
CAGTCC	0.635	0.444	0.614
AGCGTA	0.887	0.924	0.977
AGAGGA	0.57	0.642	0.748
CAGCGG	0.486	0.352	0.41
GCCATA	0.834	0.925	0.893
GTGACA	0.803	0.51	0.805
AGAGGC	0.666	0.67	0.661
AGGCAG	0.591	0.451	0.52
CCAGGT	0.708	0.587	0.722
GGGCCC	0.825	0.557	0.696

Part of the list above, as comma-separated lines:
Sequence,binding signal [1],binding signal [2],binding signal [3]
AGCCAT,0.875,0.939,0.797
CGCAGC,0.828,0.617,0.739
